# Out of some 330,000 compounds screened, about 7,700 (2.3%) were called active. The shares of active, inactive and inconclusive entries below differ from those in the screen. Calls come from the whole dose curve; as a rule, active = well fitted inhibition curve with a large enough effect; inconclusive = small, poorly fitted or top-dose-only effect, or effect the other way; inactive = flat fitted curve, though single readings scatter. Potencies of inconclusive entries are doubtful fits and often do not repeat.
# Experiment: qHTS screen for small molecules that inhibit ELG1-dependent DNA repair in human embryonic kidney (HEK293T) cells expressing luciferase-tagged ELG1; note: nearly all actives have a fitted effect of over 55% in size
# Conditions: HEK293T ELG1-luciferase reporter, luminescence, 16 h, DNA damage induced by 5-fluorouridine; activity change, negative = inhibition: at 46.1 µM (top of the series)
# In short: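 HEK293T cells expressing luciferase-tagged ELG1 (2,000/well) received 5-Fluorouridine plus compound or DMSO for 16 hr at 37 °C. Luciferase was read by ONE-Glo luminescence after 30 min at room temperature.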
# % is set by controls: 0 for no effect and ±100 for the full control effect; potency is the fitted concentration of half-maximal effect.
Compound,Potency,"activity change, negative = inhibition"
COC(=O)[C@H](Cc1ccccc1)NC(=O)N1CCCCC1C (some centres not stated),"inconclusive: 20.6 µM [activator, single point]",–
CCOC(=O)CN(C(=O)COc1nc(-c2ccccc2)cc(C)c1C#N)c1ccccc1,–,inactive: -0.303%
CCN(CC)C(=N)/C(C#N)=N/Nc1ccccc1,"inconclusive: 10.3 µM [activator, partial curve]",–
O=C(C1=C[C@@H](c2csc3ccccc23)C[C@@H](OCc2ccc(CO)cc2)O1)N1CCN(Cc2ccccc2)CC1,"inconclusive: 10.3 µM [inhibitor, partial curve]",–
Clc1ccc(C2=Nn3c(nnc3-c3n[nH]c4c3CCC4)SC2)cc1,–,inactive: 1.27%
Nc1cccc(-c2cn(-c3cc4cc(C#CC5(O)CCCCC5)ccc4oc3=O)nn2)c1,"inconclusive: 0.082 µM [inhibitor, partial curve, poor fit]",–
N#Cc1c(-c2ccco2)cc(-c2cccnc2)nc1N,–,inactive: -23.1%
Cc1ccnc(NC(=O)C2CCN(S(=O)(=O)c3c(C)c(C)cc(C)c3C)CC2)c1,"inconclusive: 18.3 µM [inhibitor, single point]",–
CS(=O)(=O)n1nc(OC(=O)c2cccs2)cc1N,–,inactive: 21.2%
O=C(O)CC/C(=N/NC(=O)c1cn(-c2ccccc2)nc1-c1ccccc1)C(=O)O,"inconclusive: 29.1 µM [activator, partial curve, poor fit]",–
C=CCOC(=O)Nc1snnc1C,–,inactive: -0.922%
CCC(=O)N(C)CCc1cc2c(c(OC)c1/C=N/NC(=O)[C@H]1C[C@@H]1c1ccccc1)OCO2,"inconclusive: 1.83 µM [activator, partial curve, poor fit]",–
COc1ccc(F)cc1S(=O)(=O)N1CCCN(S(=O)(=O)c2cc(F)ccc2OC)CC1,"inconclusive: 18.4 µM [inhibitor, single point]",–
CN(C)/C=C1\N=C(c2ccc3c(c2)OCO3)OC1=O,"inconclusive: 16.4 µM [activator, partial curve]",–
CCCCC(=O)Nc1ccc(NC(=O)C2CC2)nc1,"inconclusive: 23.1 µM [activator, single point]",–
COc1cc2c(cc1OC)CN(C(=O)c1nn(Cc3ccccc3)c(=O)c3ccccc13)CC2,active: 2.59 µM,–
O=C(C1CCN(c2nnc(-n3cccc3)s2)CC1)N1CCN(Cc2ccc3c(c2)OCO3)CC1,"inconclusive: 11.6 µM [inhibitor, partial curve]",–
CC(=O)Nc1ccc(C(=O)N2CCN(S(=O)(=O)c3ccc4c(c3)OCCCO4)CC2)cc1,–,inactive: 17.3%
CC(C(=O)NCC(=O)Nc1ccc(F)c(F)c1F)N1CCN(c2ccc(O)cc2)CC1 (configuration not stated),"inconclusive: 8.2 µM [inhibitor, partial curve]",–
Cc1c(C(O)CN2CCN(Cc3ccc4c(c3)OCO4)CC2)c2ccccc2n1C (configuration not stated),"inconclusive: 29.1 µM [inhibitor, single point]",–
Cc1ccc2c(c1)N(CC(=O)N(Cc1ccc3c(c1)OCO3)CC1CCCO1)C(=O)C(C)O2 (configuration not stated),"inconclusive: 20.6 µM [inhibitor, single point]",–

Compound,Potency,"activity change, negative = inhibition"
COc1ccccc1CCNC(=O)c1ccc2nc[nH]c2c1,"inconclusive: 29.1 µM [activator, single point]",–
COc1cccc(NC(=O)CN(C)C(=O)c2ccc(COc3ccccc3)cc2)c1,"inconclusive: 7.3 µM [inhibitor, single point]",–
Fc1ccc(NC(=S)N2CCOCC2)c(F)c1,–,inactive: -0.692%
Cc1onc(-c2ccccc2)c1C(=O)N/N=C/c1cc(Br)c(O)c(Br)c1,–,inactive: -3.29%
C=CCn1c(C)csc1=Nc1ccc(C(=O)O)cc1,"inconclusive: 29.1 µM [activator, single point]",–
CS(=O)(=O)c1nc(-c2ccccc2)cc(-c2ccccc2)c1C#N,"inconclusive: 20.6 µM [inhibitor, partial curve, poor fit]",–
CC(=O)c1cnc(-c2ccccc2)s1,"inconclusive: 23.1 µM [activator, partial curve]",–
O=C(NCC1CCCO1)Nc1ccc2c(c1)OCO2 (configuration not stated),"inconclusive: 23.1 µM [activator, partial curve]",–
CC(C)(CNC(=O)c1cc([N+](=O)[O-])ccc1N1CCC(Cc2ccccc2)CC1)N1CCOCC1,active: 20.6 µM,–
CC(=O)Nc1ccccc1OC(C)C(=O)N1CC(C)CC(C)C1 (configuration not stated),"inconclusive: 10.3 µM [inhibitor, partial curve, poor fit]",–
COC/C=C/C1=CC2=CC(=O)C(C)(OC(=O)c3cnc4ccccc4n3)C(=O)C2=CN1Cc1ccccc1 (configuration not stated),"inconclusive: 29.1 µM [activator, single point]",–
COc1ccc(-c2nc3ccccn3c2Cl)cc1,"inconclusive: 1.46 µM [activator, full curve]",–
COc1ccc2cnn(-c3ccc(C)cc3)c(=O)c2c1OC,"inconclusive: 3.26 µM [activator, partial curve, poor fit]",–
CCN(C(=O)Cc1cccs1)c1nnc(-c2cccnc2)s1,"inconclusive: 29.1 µM [activator, partial curve, poor fit]",–
C[C@@H]1CN([C@H](C)CO)C(=O)c2cc(NC(=O)C3CCCCC3)ccc2O[C@@H]1CN(C)Cc1ccc(C(F)(F)F)cc1,–,inactive: -9.9%
O=C(CSc1ccsc1[N+](=O)[O-])NCc1ccccc1,"inconclusive: 8.2 µM [activator, partial curve, poor fit]",–
Cc1cc(C)n2cc(CSc3ccc(Br)cc3)nc2n1,"inconclusive: 11.6 µM [activator, partial curve, poor fit]",–
COc1ccc(C(=O)NCCc2cc3ccc(C)c(C)c3[nH]c2=O)cc1OC,"inconclusive: 13 µM [inhibitor, partial curve, poor fit]",–
Cc1cc2oc(=O)cc(CN3CCN(S(=O)(=O)c4cccs4)CC3)c2cc1C(C)C,active: 2.31 µM,–
Cc1ccc(NC(=O)C2(S(=O)(=O)c3ccc(Cl)cc3)CC2)cc1,–,inactive: 2.85%
CCOc1ccc(NC(=O)CN(C)C(=O)c2cc(C)nc3ccccc23)cc1OCC,"inconclusive: 15.8 µM [inhibitor, single point]",–

# Entries shown so far containing an NH in an aromatic ring:
Compound,Potency,"activity change, negative = inhibition"
Clc1ccc(C2=Nn3c(nnc3-c3n[nH]c4c3CCC4)SC2)cc1,–,inactive: 1.27%
COc1ccccc1CCNC(=O)c1ccc2nc[nH]c2c1,"inconclusive: 29.1 µM [activator, single point]",–
COc1ccc(C(=O)NCCc2cc3ccc(C)c(C)c3[nH]c2=O)cc1OC,"inconclusive: 13 µM [inhibitor, partial curve, poor fit]",–
